Values of other authors, collected in patent US20140100274A1, “METHODS OF ADMINISTERING COMPOSITIONS COMPRISING DOCOSAPENTAENOIC ACID” (Matinas BioPharma, Inc., priority 2012, published 2014).
For at least one compound, name, drawing or mass did not settle the structure.

How the values were obtained:
[1] = test system: patients with very high triglycerides (>500 mg/dL); conditions: four 1-gram capsules; TG>500 mg/dL
[2] = test system: patients on statin with high triglycerides (TG 200-499 mg/dL); conditions: on statin therapy

Question: Which “effect on LDL-C (in words)” value [1] does the source give for CC/C=C\C/C=C\C/C=C\C/C=C\C/C=C\CCCC(=O)OCC [Vascepa, EPA ethyl ester] here?
Answer: slightly and non-significantly changed

Question: What about the “effect on fasting TG (in words)” value [1] of the same molecule?
Answer: significantly reduced

Question: And the “effect on LDL-C (in words)” value ([2]; 4 gr/day)?
Answer: decreased

Question: And the “effect on fasting TG (in words)” value ([2]; four 1-gram capsules)?
Answer: significantly reduced

Question: What about the “potency in reducing non-HDL-cholesterol compared with LOVAZA (in words)” value [2] of the same molecule?
Answer: more potent than LOVAZA®
